{"source": "PubChem BioAssay AID652243, Drosophila RNAi Screening Center – 2013", "test": "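Fly genes required for human androgen receptor driven transcription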 (primary screen)", "cell system": "Drosophila S2R+ cells", "knock-down reagent": "long dsRNA against Drosophila genes", "timing": "72 h (48 h, then 24 h hormone)", "treatment": "synthetic androgen R1881 at 10 nM for 24 h", "measurement": "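Firefly light from an androgen-responsive reporter and Renilla control light per well, raw and unnormalised, for each of two replicates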", "direction": "firefly reporter light: higher = more light from androgen-responsive reporter; Renilla control light: higher = more constitutive control signal (cell number, transfection)", "rule for the call": "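Across duplicate plates, a knock-down whose log firefly/Renilla ratio shifted a set fold down or up from the GFP/LacZ control mean was a hit; the downward cut appears as both 1.5 and 3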", "meaning of the calls": "active = hit: reporter lowered or raised; inactive = no hit", "note": "The deposit covers about 24,000 reagents; this is a random part of those that have a named target and a result. In the full data, 246 (1%) were called active. 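Plates not normalised; calls are printed but the firefly/Renilla ratio behind them is not deposited; fold cut for lowering reported inconsistently.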 Raw values vary from plate to plate and are shown uncorrected. The record does not give: the amount of reagent."}
{"predicted target": "CG4611", "PubChem SID": "SID104190226", "firefly reporter light, replicate 1": 1.78e5, "firefly reporter light, replicate 2": 2.56e5, "Renilla control light, replicate 1": 2.52e6, "Renilla control light, replicate 2": 3.38e6, "Outcome": "inactive"}
{"predicted target": "CG4611", "PubChem SID": "SID104204926", "firefly reporter light, replicate 1": 2.78e5, "firefly reporter light, replicate 2": 2.67e5, "Renilla control light, replicate 1": 1.10e6, "Renilla control light, replicate 2": 1.07e6, "Outcome": "active"}
{"predicted target": "CG4611", "PubChem SID": "SID104216621", "firefly reporter light, replicate 1": 3.09e5, "firefly reporter light, replicate 2": 7.59e5, "Renilla control light, replicate 1": 8.71e5, "Renilla control light, replicate 2": 2.19e6, "Outcome": "inactive"}
{"predicted target": "CG4239", "PubChem SID": "SID104199677", "firefly reporter light, replicate 1": 1.91e5, "firefly reporter light, replicate 2": 1.10e5, "Renilla control light, replicate 1": 6.98e5, "Renilla control light, replicate 2": 6.56e5, "Outcome": "inactive"}
{"predicted target": "CG4281", "PubChem SID": "SID104198313", "firefly reporter light, replicate 1": 84273, "firefly reporter light, replicate 2": 58510, "Renilla control light, replicate 1": 7.98e5, "Renilla control light, replicate 2": 4.79e5, "Outcome": "inactive"}
{"predicted target": "CG4281", "PubChem SID": "SID104206959", "firefly reporter light, replicate 1": 5.46e5, "firefly reporter light, replicate 2": 8.59e5, "Renilla control light, replicate 1": 5.88e5, "Renilla control light, replicate 2": 1.30e6, "Outcome": "inactive"}
{"predicted target": "CG17528", "PubChem SID": "SID104187553", "firefly reporter light, replicate 1": 1.09e5, "firefly reporter light, replicate 2": 1.09e5, "Renilla control light, replicate 1": 1.35e6, "Renilla control light, replicate 2": 9.48e5, "Outcome": "inactive"}
{"predicted target": "CG17528", "PubChem SID": "SID104214431", "Outcome": "inactive"}
{"predicted target": "CG17528", "PubChem SID": "SID104214432", "Outcome": "inactive"}
{"predicted target": "TwdlD", "PubChem SID": "SID104203584", "firefly reporter light, replicate 1": 9.22e5, "firefly reporter light, replicate 2": 1.03e6, "Renilla control light, replicate 1": 1.06e6, "Renilla control light, replicate 2": 1.11e6, "Outcome": "inactive"}
{"predicted target": "CG5139", "PubChem SID": "SID104180473", "firefly reporter light, replicate 1": 1.12e5, "firefly reporter light, replicate 2": 1.60e5, "Renilla control light, replicate 1": 1.10e6, "Renilla control light, replicate 2": 1.70e6, "Outcome": "inactive"}
{"predicted target": "CG5139", "PubChem SID": "SID104205085", "firefly reporter light, replicate 1": 2.22e5, "firefly reporter light, replicate 2": 2.47e5, "Renilla control light, replicate 1": 5.18e5, "Renilla control light, replicate 2": 6.61e5, "Outcome": "inactive"}
{"predicted target": "CG32633", "PubChem SID": "SID104198779", "firefly reporter light, replicate 1": 9.22e5, "firefly reporter light, replicate 2": 6.26e5, "Renilla control light, replicate 1": 2.44e6, "Renilla control light, replicate 2": 1.29e6, "Outcome": "inactive"}
{"predicted target": "CG14282", "PubChem SID": "SID104194555", "firefly reporter light, replicate 1": 2.50e5, "firefly reporter light, replicate 2": 1.99e5, "Renilla control light, replicate 1": 3.92e6, "Renilla control light, replicate 2": 2.66e6, "Outcome": "inactive"}
{"predicted target": "CG14282", "PubChem SID": "SID104204778", "firefly reporter light, replicate 1": 2.79e5, "firefly reporter light, replicate 2": 3.09e5, "Renilla control light, replicate 1": 3.34e5, "Renilla control light, replicate 2": 4.42e5, "Outcome": "inactive"}
{"predicted target": "CG17572", "PubChem SID": "SID104182421", "firefly reporter light, replicate 1": 1.32e5, "firefly reporter light, replicate 2": 1.33e5, "Renilla control light, replicate 1": 1.61e6, "Renilla control light, replicate 2": 1.08e6, "Outcome": "inactive"}
{"predicted target": "CG9372", "PubChem SID": "SID104190860", "firefly reporter light, replicate 1": 1.98e5, "firefly reporter light, replicate 2": 1.52e5, "Renilla control light, replicate 1": 1.77e6, "Renilla control light, replicate 2": 1.87e6, "Outcome": "inactive"}
{"predicted target": "tilB", "PubChem SID": "SID104200426", "firefly reporter light, replicate 1": 1.82e5, "firefly reporter light, replicate 2": 1.80e5, "Renilla control light, replicate 1": 5.89e5, "Renilla control light, replicate 2": 4.32e5, "Outcome": "inactive"}
{"predicted target": "Tsp42Ei", "PubChem SID": "SID104185981", "firefly reporter light, replicate 1": 3.85e5, "firefly reporter light, replicate 2": 4.08e5, "Renilla control light, replicate 1": 2.59e6, "Renilla control light, replicate 2": 2.50e6, "Outcome": "inactive"}
{"predicted target": "Tsp42Ei", "PubChem SID": "SID104205538", "firefly reporter light, replicate 1": 4.02e5, "firefly reporter light, replicate 2": 3.05e5, "Renilla control light, replicate 1": 8.19e5, "Renilla control light, replicate 2": 7.03e5, "Outcome": "inactive"}
{"predicted target": "Ubc6", "PubChem SID": "SID104192162", "firefly reporter light, replicate 1": 62182, "firefly reporter light, replicate 2": 65551, "Renilla control light, replicate 1": 4.95e5, "Renilla control light, replicate 2": 6.48e5, "Outcome": "inactive"}
{"predicted target": "Ubc6", "PubChem SID": "SID104207406", "firefly reporter light, replicate 1": 1.02e6, "firefly reporter light, replicate 2": 1.13e6, "Renilla control light, replicate 1": 8.29e5, "Renilla control light, replicate 2": 7.18e5, "Outcome": "inactive"}
